Laboratory results published in paper PMC5908303.
No constants are given. Whether binding was seen depends on the method and setting. Binding seen in cells or lysates may run through a third protein. Some results given as binding are weak or reduced against the parent protein; the word gives no strength.

Biological target: T1, CCCTC-Binding Factor (CTCF) (human (endogenous in HeLa)) (UniProt P49711)
T1 sequence: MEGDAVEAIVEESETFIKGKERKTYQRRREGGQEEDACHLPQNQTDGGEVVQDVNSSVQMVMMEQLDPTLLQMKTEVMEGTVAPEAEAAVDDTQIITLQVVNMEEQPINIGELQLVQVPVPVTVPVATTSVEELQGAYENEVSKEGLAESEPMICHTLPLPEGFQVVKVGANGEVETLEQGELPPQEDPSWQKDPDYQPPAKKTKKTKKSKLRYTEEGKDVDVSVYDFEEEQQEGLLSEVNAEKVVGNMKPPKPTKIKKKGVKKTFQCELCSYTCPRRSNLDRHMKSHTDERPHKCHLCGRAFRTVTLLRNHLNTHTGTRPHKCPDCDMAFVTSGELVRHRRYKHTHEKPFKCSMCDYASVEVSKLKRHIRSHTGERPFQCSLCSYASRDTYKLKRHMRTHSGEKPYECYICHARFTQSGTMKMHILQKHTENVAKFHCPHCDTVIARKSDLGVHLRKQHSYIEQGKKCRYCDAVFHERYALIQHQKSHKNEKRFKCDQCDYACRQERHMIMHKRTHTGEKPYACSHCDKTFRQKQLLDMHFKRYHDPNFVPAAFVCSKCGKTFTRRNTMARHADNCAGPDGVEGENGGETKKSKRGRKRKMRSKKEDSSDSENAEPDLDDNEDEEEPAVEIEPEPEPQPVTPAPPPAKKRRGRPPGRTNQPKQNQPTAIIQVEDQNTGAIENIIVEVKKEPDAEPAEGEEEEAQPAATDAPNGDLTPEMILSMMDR
Assay: co-IP; HeLa extract in IP lysis buffer (50 mM Tris-HCl pH 8.0, 150 mM NaCl, 1% NP40); IP with 2 ug anti-CTCF (sc-5916) or beads without antibody, Protein A/G magnetic beads, 4°C about 16 h; five washes; Western blot for CTCF and KDM4A

- binding: binds
B1: lysine (K)-specific demethylase 4A (KDM4A) (enzyme, UniProt O75164 1-1064)
chain: MASESETLNPSARIMTFYPTMEEFRNFSRYIAYIESQGAHRAGLAKVVPPKEWKPRASYDDIDDLVIPAPIQQLVTGQSGLFTQYNIQKKAMTVREFRKIANSDKYCTPRYSEFEELERKYWKNLTFNPPIYGADVNGTLYEKHVDEWNIGRLRTILDLVEKESGITIEGVNTPYLYFGMWKTSFAWHTEDMDLYSINYLHFGEPKSWYSVPPEHGKRLERLAKGFFPGSAQSCEAFLRHKMTLISPLMLKKYGIPFDKVTQEAGEFMITFPYGYHAGFNHGFNCAESTNFATRRWIEYGKQAVLCSCRKDMVKISMDVFVRKFQPERYKLWKAGKDNTVIDHTLPTPEAAEFLKESELPPRAGNEEECPEEDMEGVEDGEEGDLKTSLAKHRIGTKRHRVCLEIPQEVSQSELFPKEDLSSEQYEMTECPAALAPVRPTHSSVRQVEDGLTFPDYSDSTEVKFEELKNVKLEEEDEEEEQAAAALDLSVNPASVGGRLVFSGSKKKSSSSLGSGSSRDSISSDSETSEPLSCRAQGQTGVLTVHSYAKGDGRVTVGEPCTRKKGSAARSFSERELAEVADEYMFSLEENKKSKGRRQPLSKLPRHHPLVLQECVSDDETSEQLTPEEEAEETEAWAKPLSQLWQNRPPNFEAEKEFNETMAQQAPHCAVCMIFQTYHQVEFGGFNQNCGNASDLAPQKQRTKPLIPEMCFTSTGCSTDINLSTPYLEEDGTSILVSCKKCSVRVHASCYGVPPAKASEDWMCSRCSANALEEDCCLCSLRGGALQRANDDRWVHVSCAVAILEARFVNIAERSPVDVSKIPLPRFKLKCIFCKKRRKRTAGCCVQCSHGRCPTAFHVSCAQAAGVMMQPDDWPFVVFITCFRHKIPNLERAKGALQSITAGQKVISKHKNGRFYQCEVVRLTTETFYEVNFDDGSFSDNLYPEDIVSQDCLQFGPPAEGEVVQVRWTDGQVYGAKFVASHPIQMYQVEFEDGSQLVVKRDDVYTLDEELPKRVKSRLSVASDMRFNEIFTEKEVKQEKKRQRVINSRYREDYIEPALYRAIME
